Laboratory results from paper doi:10.1101/2021.12.02.471034.
No constants are given. Whether binding was seen depends on the method and setting. Some entries that bind do so weakly or less than the wild type.

Target: T1, Heat shock factor 1 (Hsf1) (human), Q00613
T1 chain: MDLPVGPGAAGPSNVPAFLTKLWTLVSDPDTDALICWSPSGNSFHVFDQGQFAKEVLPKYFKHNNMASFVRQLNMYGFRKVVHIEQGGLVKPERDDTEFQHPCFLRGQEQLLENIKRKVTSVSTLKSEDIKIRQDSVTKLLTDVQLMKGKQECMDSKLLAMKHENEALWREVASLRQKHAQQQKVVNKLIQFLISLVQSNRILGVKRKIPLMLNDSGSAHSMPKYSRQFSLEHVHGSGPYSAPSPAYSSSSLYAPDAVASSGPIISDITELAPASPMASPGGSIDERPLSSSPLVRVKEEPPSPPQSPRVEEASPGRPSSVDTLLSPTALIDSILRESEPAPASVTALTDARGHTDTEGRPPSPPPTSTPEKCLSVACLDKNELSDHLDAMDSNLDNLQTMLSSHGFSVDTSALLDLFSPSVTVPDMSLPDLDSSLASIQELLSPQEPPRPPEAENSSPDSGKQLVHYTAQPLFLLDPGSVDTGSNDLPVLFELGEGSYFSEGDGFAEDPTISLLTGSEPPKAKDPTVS
Experiment: non-reducing SDS-PAGE after NEM quenching
Details: remark: other sources report otherwise

B1: Heat shock factor 1 (Hsf1), Q00613 1-529 (natural protein)
chain: MDLPVGPGAAGPSNVPAFLTKLWTLVSDPDTDALICWSPSGNSFHVFDQGQFAKEVLPKYFKHNNMASFVRQLNMYGFRKVVHIEQGGLVKPERDDTEFQHPCFLRGQEQLLENIKRKVTSVSTLKSEDIKIRQDSVTKLLTDVQLMKGKQECMDSKLLAMKHENEALWREVASLRQKHAQQQKVVNKLIQFLISLVQSNRILGVKRKIPLMLNDSGSAHSMPKYSRQFSLEHVHGSGPYSAPSPAYSSSSLYAPDAVASSGPIISDITELAPASPMASPGGSIDERPLSSSPLVRVKEEPPSPPQSPRVEEASPGRPSSVDTLLSPTALIDSILRESEPAPASVTALTDARGHTDTEGRPPSPPPTSTPEKCLSVACLDKNELSDHLDAMDSNLDNLQTMLSSHGFSVDTSALLDLFSPSVTVPDMSLPDLDSSLASIQELLSPQEPPRPPEAENSSPDSGKQLVHYTAQPLFLLDPGSVDTGSNDLPVLFELGEGSYFSEGDGFAEDPTISLLTGSEPPKAKDPTVS
  binding: binds
